Reference: the supplement of paper PMC4604168 (melanoma cell lines)
This is one part of the list. Single values are uncertain, as repeats are few or missing.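 Cells were imaged in 1,536-well plates, and nuclei stained with an antibody against cleaved PARP were counted against all DNA-stained nuclei to give the apoptosis fraction. Screening doses were chosen to leave most cells alive, and resting and induced cleaved-PARP levels differ strongly between cell lines.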

How the values were obtained:
Assay in all cases: cleaved PARP positive nuclei fraction relative to DMSO control; melanoma cells; higher = more apoptosis
Conditions in all cases: library dose: low library concentration; 72 h
WM115 = system: WM115
WM1716 = system: WM1716
WM1745 = system: WM1745
WM3526 = system: WM3526
WM3619 = system: WM3619
WM451Lu = system: WM451Lu

Compound	cleaved PARP positive nuclei fraction (WM115)	cleaved PARP positive nuclei fraction (WM1716)	cleaved PARP positive nuclei fraction (WM1745)	cleaved PARP positive nuclei fraction (WM3526)	cleaved PARP positive nuclei fraction (WM3619)	cleaved PARP positive nuclei fraction (WM451Lu)
OCc1c[nH]c2ccccc12 [Indole-3-carbinol] + C/C(O)=C(\C#N)C(=O)Nc1cc(Br)ccc1Br [LFM-A13] (first compound 0.8 µM, partner dose 2 µM)	258%	83%	457%	35.7%	113%	66.7%
Cn1cc(C2=C(c3cn(C4CCN(Cc5ccccn5)CC4)c4ccccc34)C(=O)NC2=O)c2ccccc21 [Enzastaurin] + N.N.[Cl][Pt][Cl] [cisplatin] (first compound 0.8 µM, partner dose 1.6 µM)	114%	113%	110%	50%	188%	47.3%
C[C@]12O[C@H](C[C@]1(O)CO)n1c3ccccc3c3c4c(c5c6ccccc6n2c5c31)CNC4=O [Lestaurtinib] + Cn1cncc1[C@@](N)(c1ccc(Cl)cc1)c1ccc2c(c1)c(-c1cccc(Cl)c1)cc(=O)n2C [tipifarnib] (first compound 0.004 µM, partner dose 0.01 µM)	93.4%	142%	95.8%	66.4%	107%	109%
C[C@]12O[C@H](C[C@]1(O)CO)n1c3ccccc3c3c4c(c5c6ccccc6n2c5c31)CNC4=O [Lestaurtinib] + CCN(CC)CCCCNc1ncc2cc(-c3cc(OC)cc(OC)c3)c(NC(=O)NC(C)(C)C)nc2n1 [PD173074] (first compound 0.004 µM, partner dose 0.1 µM)	102%	102%	105%	96.3%	96.7%	106%
C[C@]12O[C@H](C[C@]1(O)CO)n1c3ccccc3c3c4c(c5c6ccccc6n2c5c31)CNC4=O [Lestaurtinib] + O=C(O)[C@@H]1[O][Sb](=[O])([O][Sb]2(=[O])[O][C@H]([C@H](O)CO)[C@H](O)[C@H](C(=O)O)[O]2)[O][C@H]([C@H](O)CO)[C@@H]1O [stibogluconate] (first compound 0.004 µM, partner dose 2 µM)	79.3%	164%	87.8%	40%	60.1%	86.7%
C[C@@H](N)c1ccc(C(=O)Nc2ccnc3[nH]ccc23)cc1 + O=C(Oc1ccc([N+](=O)[O-])cc1)N1CCC(C(O)(c2ccc3c(c2)OCO3)c2ccc3c(c2)OCO3)CC1 [JZL184] (first compound 0.4 µM, partner dose 1 µM)	78.5%	288%	113%	47.5%	105%	68.9%
N.N.[Cl][Pt][Cl] [cisplatin] + Cn1cncc1[C@@](N)(c1ccc(Cl)cc1)c1ccc2c(c1)c(-c1cccc(Cl)c1)cc(=O)n2C [tipifarnib] (first compound 1.6 µM, partner dose 0.01 µM)	38.8%	72.8%	95.2%	64.8%	87.9%	29.9%
Cn1cc(C2=C(c3cn(C4CCN(Cc5ccccn5)CC4)c4ccccc34)C(=O)NC2=O)c2ccccc21 [Enzastaurin] + Nc1cccc2c1CN(C1CCC(=O)NC1=O)C2=O [lenalidomide] (first compound 0.8 µM, partner dose 1 µM)	31.4%	222%	123%	19.9%	105%	29.2%
N.N.[Cl][Pt][Cl] [cisplatin] + C[C@@H](Oc1cc(-c2cnn(C3CCNCC3)c2)cnc1N)c1c(Cl)ccc(F)c1Cl [Crizotinib] (first compound 1.6 µM, partner dose 0.2 µM)	62.7%	61%	91.9%	79.3%	69.5%	97.7%
C#Cc1cccc(Nc2ncnc3cc(OCCOC)c(OCCOC)cc23)c1 [erlotinib] + Cc1cc(SCc2sc(-c3ccc(C(F)(F)F)c(F)c3)nc2C)ccc1OCC(=O)O [GW0742] (first compound 0.8 µM, partner dose 2 µM)	103%	151%	256%	64.3%	104%	54.5%
CNC(=O)c1cc(Oc2ccc(NC(=O)Nc3ccc(Cl)c(C(F)(F)F)c3)cc2)ccn1 [sorafenib] + C/C(O)=C(\C#N)C(=O)Nc1cc(Br)ccc1Br [LFM-A13] (first compound 0.4 µM, partner dose 2 µM)	115%	171%	98.3%	374%	92%	667%
O=C(Nc1cc(C(F)(F)F)cc(C(F)(F)F)c1)c1cc(Cl)ccc1O + N.N.[Cl][Pt][Cl] [cisplatin] (first compound 0.016 µM, partner dose 1.6 µM)	113%	71%	94.7%	131%	76%	54.1%

Whole records, quoted from the list. Order of values: cleaved PARP positive nuclei fraction (WM115) | cleaved PARP positive nuclei fraction (WM1716) | cleaved PARP positive nuclei fraction (WM1745) | cleaved PARP positive nuclei fraction (WM3526) | cleaved PARP positive nuclei fraction (WM3619) | cleaved PARP positive nuclei fraction (WM451Lu)
N.N.[Cl][Pt][Cl] [cisplatin] + Cn1cncc1[C@@](N)(c1ccc(Cl)cc1)c1ccc2c(c1)c(-c1cccc(Cl)c1)cc(=O)n2C [tipifarnib] (first compound 1.6 µM, partner dose 0.01 µM) reads 38.8% | 72.8% | 95.2% | 64.8% | 87.9% | 29.9%
O=C(Nc1cc(C(F)(F)F)cc(C(F)(F)F)c1)c1cc(Cl)ccc1O + N.N.[Cl][Pt][Cl] [cisplatin] (first compound 0.016 µM, partner dose 1.6 µM) reads 113% | 71% | 94.7% | 131% | 76% | 54.1%
